Measured values published in patent US20110091477A1.
No constants are given. Whether binding was seen depends on the method and setting. Some binding calls cover weakened binding; strength is not graded here.

Target: T1, HGFA (Val373-Ser655) (human) (UniProt Q04756)
T1 sequence: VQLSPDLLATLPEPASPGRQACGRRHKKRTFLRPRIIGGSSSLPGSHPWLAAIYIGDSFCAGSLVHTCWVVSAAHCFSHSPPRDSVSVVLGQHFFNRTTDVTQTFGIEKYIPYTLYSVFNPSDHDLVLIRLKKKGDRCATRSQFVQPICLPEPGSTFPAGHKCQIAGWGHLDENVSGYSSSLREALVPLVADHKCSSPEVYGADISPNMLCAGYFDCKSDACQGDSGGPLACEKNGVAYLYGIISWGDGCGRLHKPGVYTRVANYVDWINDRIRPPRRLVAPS
Assay: SPR (BIAcore) competition: HGFA with KD1 at 0, 2.5 or 10 nM injected over immobilised Ab40; competitor Ab40

- binding: binds
B1: Kunitz domain inhibitor KD1 (protein, UniProt O43278 246-303, looked up)
chain: TEDYCLASNKVGRCRGSFPRWYYDPTEQICKSFVYGGCLGNKNNYLREEECILACRGV
modifications: biotinylated in the competition ELISA
